Results are given in words; binding and its absence hold for the method and conditions named. Binding seen in cells or lysates may run through a third protein. Some entries that bind do so weakly or less than the wild type.
Target: Peroxisome proliferator-activated receptor gamma (PPARγ) (human (endogenous in HTR-8/SVneo)) (UniProt P37231)
Experiment: co-IP; total cell proteins in IP cell lysis buffer; anti-PPARγ or rabbit IgG (control) overnight at 4 °C, agarose beads, 4 washes; PPARγ, Nrf2 and SREBP1 detected by western blot

Amino acid sequences for entries named in this document (tags omitted).
UniProt P37231: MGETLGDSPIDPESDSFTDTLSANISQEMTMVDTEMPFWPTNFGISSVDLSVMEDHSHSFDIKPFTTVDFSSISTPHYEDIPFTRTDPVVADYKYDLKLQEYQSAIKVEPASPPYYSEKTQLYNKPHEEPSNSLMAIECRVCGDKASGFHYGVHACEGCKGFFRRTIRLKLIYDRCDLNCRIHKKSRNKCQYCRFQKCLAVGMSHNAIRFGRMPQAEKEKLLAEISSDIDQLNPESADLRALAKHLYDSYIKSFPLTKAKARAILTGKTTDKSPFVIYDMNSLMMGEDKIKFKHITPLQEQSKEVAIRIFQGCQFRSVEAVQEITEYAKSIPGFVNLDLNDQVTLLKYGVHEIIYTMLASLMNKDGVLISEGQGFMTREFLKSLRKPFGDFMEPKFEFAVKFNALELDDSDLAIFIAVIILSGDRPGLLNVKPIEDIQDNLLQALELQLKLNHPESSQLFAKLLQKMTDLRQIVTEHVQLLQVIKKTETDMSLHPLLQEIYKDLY

B1: Nrf2 (protein, UniProt Q16236 1-605)
chain: MMDLELPPPGLPSQQDMDLIDILWRQDIDLGVSREVFDFSQRRKEYELEKQKKLEKERQEQLQKEQEKAFFAQLQLDEETGEFLPIQPAQHIQSETSGSANYSQVAHIPKSDALYFDDCMQLLAQTFPFVDDNEVSSATFQSLVPDIPGHIESPVFIATNQAQSPETSVAQVAPVDLDGMQQDIEQVWEELLSIPELQCLNIENDKLVETTMVPSPEAKLTEVDNYHFYSSIPSMEKEVGNCSPHFLNAFEDSFSSILSTEDPNQLTVNSLNSDATVNTDFGDEFYSAFIAEPSISNSMPSPATLSHSLSELLNGPIDVSDLSLCKAFNQNHPESTAEFNDSDSGISLNTSPSVASPEHSVESSSYGDTLLGLSDSEVEELDSAPGSVKQNGPKTPVHSSGDMVQPLSPSQGQSTHVHDAQCENTPEKELPVSPGHRKTPFTKDKHSSRLEAHLTRDELRAKALHIPFPVEKIINLPVVDFNEMMSKEQFNEAQLALIRDIRRRGKNKVAAQNCRKRKLENIVELEQDLDHLKDEKEKLLKEKGENDKSLHLLKKQLSTLYLEVFSMLRDEDGKPYSPSEYSLQQTRDGNVFLVPKSKKPDVKKN
- binding: binds

— paper PMC11004023
